PubChem BioAssay AID1259258 – Sanger Institute | 2017
Shown is a random part of 160 deposited reagents. 40 of them (25%) count as active. 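Each row is one of four siRNAs per gene; a gene counts as confirmed only when several of its siRNAs show synergy.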 Entries without a mark were called inactive. The numbers tell different reagents against one gene apart. Further read-outs or replicates are left out here. Not given: the amount of reagent, the time to read-out.

Assay: 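Single siRNAs acting synergistically with drugs against colorectal cancer cells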 (follow-up of hits)
Cells: human SW48 colorectal cancer cells
Reagents: single siRNA against human genes
Conditions: anchor drug cetuximab 5 µg/ml, trametinib 10 nM or BYL719 1 µM, or DMSO vehicle alone; assay length not stated
Read-out: 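Synergy score per drug compares siRNA-plus-drug effect with each agent alone; viability, relative to non-targeting pool 2 and replicate-averaged, uses DMSO, cetuximab 5 µg/ml, trametinib 10 nM or BYL719 1 µM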
Scale: synergy score with trametinib and synergy score with BYL719 and synergy score with cetuximab: higher = stronger synergy, more killing than expected
Active means: 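Hit when the synergy score is above 0.10 for at least one of trametinib, BYL719 or cetuximab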

IRAK1 #1 scored synergy score with trametinib 0.421 (active); synergy score with BYL719 = 0.0444; synergy score with cetuximab 0.111.
IRAK1 #2 showed synergy score with trametinib -0.183; synergy score with BYL719 = -0.0824; synergy score with cetuximab -0.157.
Against IRAK1 #3, the entry reads synergy score with trametinib 0.242 (active); synergy score with BYL719 = 0.135; synergy score with cetuximab 0.0447.
For IRAK1 #4, the values are synergy score with trametinib 0.0946 (active); synergy score with BYL719 = 0.221; synergy score with cetuximab -0.274.
After knock-down of SYNCRIP #1 the results were synergy score with trametinib 0.0287 (active); synergy score with BYL719 = 0.131; synergy score with cetuximab 0.0379.
SYNCRIP #2 gave synergy score with trametinib -0.0282; synergy score with BYL719 = 0.0094; synergy score with cetuximab -0.12.
Against SYNCRIP #3, the entry reads synergy score with trametinib 0.119 (active); synergy score with BYL719 = -0.00978; synergy score with cetuximab 0.00327.
SYNCRIP #4 gave synergy score with trametinib -0.00274; synergy score with BYL719 = -0.0421; synergy score with cetuximab 0.0446.
PINK1 #1 showed synergy score with trametinib -0.0624; synergy score with BYL719 = -0.23; synergy score with cetuximab -0.00486.
PINK1 #2 gave synergy score with trametinib 0.126 (active); synergy score with BYL719 = 0.035; synergy score with cetuximab -0.0488.
Silencing of PINK1 #3 resulted in: synergy score with trametinib 0.0157; synergy score with BYL719 = 0.035; synergy score with cetuximab -0.0215.
With knock-down of PINK1 #4, the record shows synergy score with trametinib 0.106 (active); synergy score with BYL719 = -0.0674; synergy score with cetuximab -0.0251.
COASY #1 scored synergy score with trametinib 0.00121; synergy score with BYL719 = -0.0147; synergy score with cetuximab -0.071.
Knock-down of COASY #2 resulted in: synergy score with trametinib -0.178; synergy score with BYL719 = -0.136; synergy score with cetuximab -0.223.
For COASY #3, the entry reads synergy score with trametinib 0.145 (active); synergy score with BYL719 = -0.022; synergy score with cetuximab -0.033.
COASY #4 showed synergy score with trametinib -0.0293; synergy score with BYL719 = -0.125; synergy score with cetuximab -0.232.
Depletion of BRAF #1 resulted in: synergy score with trametinib 0.127 (active); synergy score with BYL719 = -0.0295; synergy score with cetuximab -0.0122.
For BRAF #2, the values are synergy score with trametinib 0.149 (active); synergy score with BYL719 = -0.0152; synergy score with cetuximab -0.201.
BRAF #3 showed synergy score with trametinib -0.113; synergy score with BYL719 = -0.113; synergy score with cetuximab -0.182.
After knock-down of BRAF #4 the results were synergy score with trametinib 0.0172; synergy score with BYL719 = -0.0814; synergy score with cetuximab -0.165.

Quoted from the entries so far, 2 entries:
BRAF #3 | synergy score with trametinib: -0.113; synergy score with BYL719: -0.113; synergy score with cetuximab: -0.182
BRAF #4 | synergy score with trametinib: 0.0172; synergy score with BYL719: -0.0814; synergy score with cetuximab: -0.165
